At least one compound was matched to its structure with a doubt left.
System: KB: the human oral epithelium cancer cell strain
Type: cell-based
Settings: Table 1; MTT, 4 days of culture
Method: Experiment 1. Cytotoxicity Screening Assay at Cell Level of Compounds of this Invention
Tumor cells at log phase were incubated on 96-well plates at a density of 1˜1.2×10^4 cells/ml, 100 μl/well. 24 h later, treatment cells were exposed to the tested agents at different concentrations. Each tested agents had 4˜5 doses, and each dose had at least 3 parallel wells. Control cells were exposed to solvents in the same volume with treat agents. Cells were cultured at 37° C. in a cell incubator with 5% CO2 and 95% air atmosphere. After 4 days of culture, the incubation medium was removed, then 200 μl 0.2% MTT (prepared by RPMI 1640) was added to each well and the plates were incubated at 37° C. for 4 hours. The supernatant was discarded and dissolved the resulting formazen product with 200 μl DMSO in each well. The absorbance at a reference wavelength of 450 nm and a test wavelength of 570 nm was read on a microplate reader after tenderly shaking. Calculated drug inhibitory rate using the following equation and IC50, taking solvent exposure tumor cells as control cells.

## CC=C(C)C(=O)NC(c1ccccc1)C(O)C(=O)OC1CC2(O)C(OC(=O)c3cccc(OC)c3)C3C4(OC(C)=O)COC4CC(O)C3(C)C(=O)C(OC(=O)CC)C(=C1C)C2(C)C (stereo not shown) [Example 3, 2-(3-methoxybenzoyl)-10-propionyl-cephalomannine]
  IC50(M) KB: 1.38 × 10^−−7 M
